The values below come from publication PMC2652428.

In assay [1] the target is T1, Mcm4-VC155 (S. pombe) (UniProt P29458).
T1 sequence: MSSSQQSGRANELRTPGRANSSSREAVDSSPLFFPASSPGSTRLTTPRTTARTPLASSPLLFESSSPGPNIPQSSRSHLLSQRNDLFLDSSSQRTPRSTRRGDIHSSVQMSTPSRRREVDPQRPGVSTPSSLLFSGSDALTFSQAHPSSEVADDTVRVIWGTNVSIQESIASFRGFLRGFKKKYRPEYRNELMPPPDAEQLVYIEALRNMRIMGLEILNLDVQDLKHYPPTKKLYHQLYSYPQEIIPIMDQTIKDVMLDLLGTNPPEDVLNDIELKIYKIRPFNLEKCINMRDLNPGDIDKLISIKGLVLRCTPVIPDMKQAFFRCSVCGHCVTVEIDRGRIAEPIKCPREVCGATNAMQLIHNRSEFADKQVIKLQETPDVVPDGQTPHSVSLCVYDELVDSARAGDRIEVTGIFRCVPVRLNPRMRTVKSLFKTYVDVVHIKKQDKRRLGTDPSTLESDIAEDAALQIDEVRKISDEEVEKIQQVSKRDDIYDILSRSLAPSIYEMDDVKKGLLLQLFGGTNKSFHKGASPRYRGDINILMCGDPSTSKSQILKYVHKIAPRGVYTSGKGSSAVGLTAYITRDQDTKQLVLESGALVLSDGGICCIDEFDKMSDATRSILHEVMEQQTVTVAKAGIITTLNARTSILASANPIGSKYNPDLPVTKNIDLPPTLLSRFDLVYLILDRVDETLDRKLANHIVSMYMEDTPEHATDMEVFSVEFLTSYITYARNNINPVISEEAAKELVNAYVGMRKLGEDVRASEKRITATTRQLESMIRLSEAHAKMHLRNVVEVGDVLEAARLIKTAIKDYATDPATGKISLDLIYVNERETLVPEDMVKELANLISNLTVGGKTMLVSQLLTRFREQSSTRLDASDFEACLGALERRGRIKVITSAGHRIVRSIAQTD
Description: split reporter; chromatin-associated BiFC: S. pombe cells extracted with Triton X-100 in Mg2+-containing low salt buffer at 20°C for 10 min, fixed with methanol/acetone, fluorescence microscopy; also cells treated with 12 mM hydroxyurea for 2 and 4 hours.

In assay [2] the target is T1, Mcm4-VC155 (S. pombe). The experiment in a line: split reporter; BiFC with Venus fragments VN173 and VC155 on proteins expressed from their native loci; exponentially-growing S. pombe cells (haploid or diploid), fixed with methanol/acetone, fluorescence microscopy.

No constants are given. Whether binding was seen depends on the method and setting. Binding seen in cells or lysates may run through a third protein. Some binding calls cover weakened binding; strength is not graded here.

B1: Psf1-VN173 (protein, UniProt Q9P7X6 1-202)
chain: MENGLGNRSNKLIRDSKRTQYLDYLPPYQADTVNDVVNEIRAADRESLGILQNVTHEASQPFQPQDHPSEAAALLMFHSSSIYNKRCLMAYHNLRLQRLRQYCWSGGKRMESCLDTSLSTYERDYLTRYSELLAAYKGAWSELDLTGSLVPPKNLFIDVRVLKDVGDIETEYGTINLTKNSQLHVRATDVERLIAQGFLAKL
Regarding B1, the binding result with Mcm4-VC155 (S. pombe) [1] and in the assay with Mcm4-VC155 (S. pombe) [2] was “binds” throughout.

B2: Mcm4-VC155 (protein, UniProt P29458 1-911)
chain: T1 sequence
B2: the binding result with Mcm4-VC155 (S. pombe) [1] and with Mcm4-VC155 (S. pombe) [2] was “binds” each time.
